Values quoted from earlier work in article PMC8044178, “Structural basis of norepinephrine recognition and transport inhibition in neurotransmitter transporters” (Nature Communications, 2021).
Like-named read-outs stand apart in the source and are kept apart here.

Tests used:
hNET [1] = conditions: read-out: Binding Inhibition (Ki), hNET; vs. desipramine; ref 2 (Supplementary: Sagata et al., 2002); cited from earlier work
hDAT = conditions: cited from earlier work
hNET [2] = conditions: cited from earlier work

## COc1cccc(C2(O)CCCCC2CN(C)C)c1 (centres unmarked) [Tramadol, tramadol]
hNET [1]
  Ki: 11.2 µM
hDAT; read-out: IC50, inhibition of hDAT
  IC50: ~100 µM
hDAT; read-out: Uptake Inhibition IC50, hDAT, ref 5 (Supplementary: Rickli et al., 2018)
  IC50: 100 µM
hNET [2]; read-out: IC50, inhibition of hNET
  IC50: 2 µM
hNET [2]; ref 2 (Supplementary: Sagata et al., 2002), read-out: Uptake Inhibition Ki, hNET
  Ki: 19.7 µM
